Data: patent US20230227833
Negatives hold for the conditions tested.

Protein sequences, listed by entry. Tags and fused reporters are not part of them.
UniProt P19821, whole entry: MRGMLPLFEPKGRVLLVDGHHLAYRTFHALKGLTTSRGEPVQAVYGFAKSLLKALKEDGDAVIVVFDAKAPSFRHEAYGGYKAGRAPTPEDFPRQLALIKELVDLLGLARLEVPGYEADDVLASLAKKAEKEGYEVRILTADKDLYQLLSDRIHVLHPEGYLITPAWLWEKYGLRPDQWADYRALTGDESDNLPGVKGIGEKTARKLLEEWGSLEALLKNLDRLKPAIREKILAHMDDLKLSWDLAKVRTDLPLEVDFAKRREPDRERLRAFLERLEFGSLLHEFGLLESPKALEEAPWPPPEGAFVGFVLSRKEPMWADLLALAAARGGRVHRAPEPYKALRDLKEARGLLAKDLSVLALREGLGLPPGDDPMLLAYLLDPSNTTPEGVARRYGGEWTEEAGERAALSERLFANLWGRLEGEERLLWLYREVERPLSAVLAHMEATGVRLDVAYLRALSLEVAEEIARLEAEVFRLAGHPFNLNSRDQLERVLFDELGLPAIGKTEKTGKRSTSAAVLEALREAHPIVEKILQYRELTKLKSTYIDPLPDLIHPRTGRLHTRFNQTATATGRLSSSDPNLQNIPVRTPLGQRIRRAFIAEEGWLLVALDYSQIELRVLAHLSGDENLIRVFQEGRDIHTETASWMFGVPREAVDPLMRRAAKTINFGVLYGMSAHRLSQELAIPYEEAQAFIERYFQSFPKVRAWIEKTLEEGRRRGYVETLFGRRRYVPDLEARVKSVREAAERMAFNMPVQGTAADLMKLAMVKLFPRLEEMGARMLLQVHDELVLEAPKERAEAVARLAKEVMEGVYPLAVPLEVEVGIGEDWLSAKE

Target: Taq DNA polymerase (UniProt P19821)
Assay: inhibition of the protein
Details: purified recombinant protein, folded or branched DNA

Question: How did the “activity on this sequence” value (3' dideoxy, inhibits at 30 and 40 C, release starts at 50 C, complete at 60 C) turn out when “TCGAACGGATTACAGCTGTAATC [analog 2 (Example 10)]” was run?
Answer: active

Question: “TCGAACGGTATATATATTAATATATATATAC [ligand 1 3' amino]” was tested. Which “activity on this sequence” value (3' amino, inhibits at 45 C, released at 70 C, variant of ligand 1 (3' dideoxy)) did it give?
Answer: active

Question: How did the “activity on this sequence” value (3' phosphate, inhibits at 45 C, released at 70 C, variant of ligand 1 (3' dideoxy)) turn out when “TCGAACGGTATATATATTAATATATATATAC [ligand 1 3' phosphorylated]” was run?
Answer: active

Question: Which “activity on this sequence” value (3' dideoxy, activity lost below 50 C, fully released at 70 C) does the source give for “TCGAACGGTATATATATTAATATATATATAC [ligand 1 (3' dideoxy)]” here?
Answer: active

Question: For “TCGAACGGTATATATATTAATATATATATAC [ligand 1 control, 3' unmodified]”, which “activity on this sequence” value (3' unmodified control, full polymerase activity retained (45 C in Example 4), variant of ligand 1 (3' dideoxy)) is on record?
Answer: not active
